The results in this text go back to the supplement of paper PMC12067093, “Discovery and optimisation of a covalent ligand for TRIM25 and its application to targeted protein ubiquitination” (Chemical Science, 2025).

Chains of the proteins cited; added tags and fusions are not shown. Lines headed by an entry give the natural chain unless they say otherwise; changes in a name come on top.
UniProt Q9BVI4: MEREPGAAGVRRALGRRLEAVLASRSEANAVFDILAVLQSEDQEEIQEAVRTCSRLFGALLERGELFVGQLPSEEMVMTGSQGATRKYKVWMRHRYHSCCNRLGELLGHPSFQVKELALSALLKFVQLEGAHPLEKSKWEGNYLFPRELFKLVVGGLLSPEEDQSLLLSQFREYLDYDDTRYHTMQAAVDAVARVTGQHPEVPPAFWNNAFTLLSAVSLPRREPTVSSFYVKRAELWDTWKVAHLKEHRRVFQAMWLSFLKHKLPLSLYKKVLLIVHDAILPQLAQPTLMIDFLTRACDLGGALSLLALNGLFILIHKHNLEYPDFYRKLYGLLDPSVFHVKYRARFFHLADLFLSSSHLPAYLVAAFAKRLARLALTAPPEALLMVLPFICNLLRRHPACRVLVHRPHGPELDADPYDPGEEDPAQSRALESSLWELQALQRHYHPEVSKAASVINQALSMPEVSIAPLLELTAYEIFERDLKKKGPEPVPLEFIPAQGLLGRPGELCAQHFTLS
UniProt O43847: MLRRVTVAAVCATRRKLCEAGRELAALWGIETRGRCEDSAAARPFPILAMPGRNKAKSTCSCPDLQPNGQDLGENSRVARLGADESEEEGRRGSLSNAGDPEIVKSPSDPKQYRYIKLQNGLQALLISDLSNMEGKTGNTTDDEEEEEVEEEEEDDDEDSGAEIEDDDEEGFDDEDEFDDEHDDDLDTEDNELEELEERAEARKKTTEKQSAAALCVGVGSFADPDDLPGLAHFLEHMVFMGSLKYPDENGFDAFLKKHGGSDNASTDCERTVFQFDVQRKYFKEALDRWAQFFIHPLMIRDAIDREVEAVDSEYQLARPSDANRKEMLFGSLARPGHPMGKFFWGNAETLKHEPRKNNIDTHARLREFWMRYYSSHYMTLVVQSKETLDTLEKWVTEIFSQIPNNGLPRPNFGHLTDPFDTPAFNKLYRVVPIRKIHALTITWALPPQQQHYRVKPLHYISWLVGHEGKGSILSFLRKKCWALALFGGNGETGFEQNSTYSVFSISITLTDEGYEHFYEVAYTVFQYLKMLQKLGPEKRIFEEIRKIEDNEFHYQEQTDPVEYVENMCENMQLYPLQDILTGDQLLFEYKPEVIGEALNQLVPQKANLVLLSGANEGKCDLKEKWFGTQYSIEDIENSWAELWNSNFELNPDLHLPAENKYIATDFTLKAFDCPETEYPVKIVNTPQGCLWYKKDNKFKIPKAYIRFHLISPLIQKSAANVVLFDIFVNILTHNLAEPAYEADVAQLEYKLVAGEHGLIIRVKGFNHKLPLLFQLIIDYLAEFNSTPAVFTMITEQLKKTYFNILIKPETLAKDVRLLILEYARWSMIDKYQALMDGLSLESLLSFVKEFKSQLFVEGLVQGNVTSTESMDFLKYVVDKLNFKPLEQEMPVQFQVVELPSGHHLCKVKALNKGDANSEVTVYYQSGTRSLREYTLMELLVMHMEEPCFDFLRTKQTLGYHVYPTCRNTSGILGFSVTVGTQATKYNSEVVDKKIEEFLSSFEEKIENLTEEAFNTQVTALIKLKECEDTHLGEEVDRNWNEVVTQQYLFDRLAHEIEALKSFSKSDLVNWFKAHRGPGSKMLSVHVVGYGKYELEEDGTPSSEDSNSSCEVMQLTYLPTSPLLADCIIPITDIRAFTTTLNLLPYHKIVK
UniProt Q9NX02: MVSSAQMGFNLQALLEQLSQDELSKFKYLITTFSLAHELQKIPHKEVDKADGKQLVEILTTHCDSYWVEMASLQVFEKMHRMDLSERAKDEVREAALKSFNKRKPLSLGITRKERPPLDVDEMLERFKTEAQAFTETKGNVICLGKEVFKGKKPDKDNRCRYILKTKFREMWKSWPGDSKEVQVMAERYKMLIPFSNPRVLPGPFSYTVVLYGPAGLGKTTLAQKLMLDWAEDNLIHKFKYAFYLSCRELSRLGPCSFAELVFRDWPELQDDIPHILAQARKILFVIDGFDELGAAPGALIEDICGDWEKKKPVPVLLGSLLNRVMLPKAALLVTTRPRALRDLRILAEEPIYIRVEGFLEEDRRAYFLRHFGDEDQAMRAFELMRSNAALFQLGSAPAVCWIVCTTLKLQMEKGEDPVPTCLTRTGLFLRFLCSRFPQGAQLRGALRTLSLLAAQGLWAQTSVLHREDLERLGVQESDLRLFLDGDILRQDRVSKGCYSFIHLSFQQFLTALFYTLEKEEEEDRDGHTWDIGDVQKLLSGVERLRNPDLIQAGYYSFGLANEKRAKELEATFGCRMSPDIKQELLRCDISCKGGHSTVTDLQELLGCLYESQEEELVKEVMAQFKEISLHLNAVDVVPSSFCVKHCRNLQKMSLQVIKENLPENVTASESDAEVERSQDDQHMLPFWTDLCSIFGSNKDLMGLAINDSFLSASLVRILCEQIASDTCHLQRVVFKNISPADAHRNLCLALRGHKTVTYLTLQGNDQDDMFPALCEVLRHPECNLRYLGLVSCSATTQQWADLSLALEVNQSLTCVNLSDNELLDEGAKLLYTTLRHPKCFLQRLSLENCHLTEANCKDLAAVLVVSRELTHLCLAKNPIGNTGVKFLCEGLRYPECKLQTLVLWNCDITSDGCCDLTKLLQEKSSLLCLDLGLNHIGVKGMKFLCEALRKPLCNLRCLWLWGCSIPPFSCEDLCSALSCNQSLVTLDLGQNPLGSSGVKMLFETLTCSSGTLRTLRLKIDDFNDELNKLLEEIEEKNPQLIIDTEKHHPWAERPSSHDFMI
UniProt Q8WTW4: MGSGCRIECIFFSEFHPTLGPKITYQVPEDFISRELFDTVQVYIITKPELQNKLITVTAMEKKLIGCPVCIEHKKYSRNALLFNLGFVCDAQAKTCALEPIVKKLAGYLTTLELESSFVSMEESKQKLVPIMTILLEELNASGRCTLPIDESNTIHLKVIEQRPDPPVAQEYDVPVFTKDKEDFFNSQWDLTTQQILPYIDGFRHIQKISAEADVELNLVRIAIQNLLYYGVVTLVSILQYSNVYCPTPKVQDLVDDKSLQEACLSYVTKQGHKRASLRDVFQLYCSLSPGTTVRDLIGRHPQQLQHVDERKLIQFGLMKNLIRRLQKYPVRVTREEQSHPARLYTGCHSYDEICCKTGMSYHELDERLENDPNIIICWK
UniProt Q9BSC4: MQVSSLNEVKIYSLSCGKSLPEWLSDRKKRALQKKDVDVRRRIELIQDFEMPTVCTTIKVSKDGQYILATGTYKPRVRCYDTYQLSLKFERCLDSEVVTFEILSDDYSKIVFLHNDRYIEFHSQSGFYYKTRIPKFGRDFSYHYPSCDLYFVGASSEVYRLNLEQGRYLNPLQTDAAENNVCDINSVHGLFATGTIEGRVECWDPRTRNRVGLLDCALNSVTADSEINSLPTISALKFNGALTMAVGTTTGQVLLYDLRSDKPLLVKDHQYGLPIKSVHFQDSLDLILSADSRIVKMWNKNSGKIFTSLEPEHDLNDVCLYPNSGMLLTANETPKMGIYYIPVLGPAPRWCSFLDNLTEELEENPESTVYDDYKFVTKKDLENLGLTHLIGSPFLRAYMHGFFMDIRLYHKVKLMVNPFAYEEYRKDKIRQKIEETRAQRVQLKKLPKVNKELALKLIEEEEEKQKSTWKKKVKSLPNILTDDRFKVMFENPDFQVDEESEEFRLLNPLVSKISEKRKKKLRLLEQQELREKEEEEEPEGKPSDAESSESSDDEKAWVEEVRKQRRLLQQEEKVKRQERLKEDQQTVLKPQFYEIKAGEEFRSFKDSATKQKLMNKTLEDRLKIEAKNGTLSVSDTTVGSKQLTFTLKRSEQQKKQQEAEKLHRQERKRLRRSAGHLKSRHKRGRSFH
UniProt Q9ULX3: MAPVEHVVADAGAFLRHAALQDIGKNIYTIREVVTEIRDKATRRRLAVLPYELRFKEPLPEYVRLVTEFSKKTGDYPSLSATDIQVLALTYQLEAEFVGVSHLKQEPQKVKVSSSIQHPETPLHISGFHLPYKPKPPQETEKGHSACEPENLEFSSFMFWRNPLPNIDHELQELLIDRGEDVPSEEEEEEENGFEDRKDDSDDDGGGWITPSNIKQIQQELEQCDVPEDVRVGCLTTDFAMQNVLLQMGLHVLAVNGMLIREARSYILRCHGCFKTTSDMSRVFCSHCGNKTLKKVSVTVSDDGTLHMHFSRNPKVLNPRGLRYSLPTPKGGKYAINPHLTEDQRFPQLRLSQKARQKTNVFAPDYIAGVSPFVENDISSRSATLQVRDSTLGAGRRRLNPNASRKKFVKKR

Some of the results follow.

Compound in the assay: CC1Cc2ccccc2N1C(=O)C1CCCN(C1)C(=O)CCl (mixture of isomers) [TRIM25 ligand 11 (diastereomer mixture)]
Kind of assay: probe-labelled cysteine peptide fold change vs DMSO (competition) (log2 fold change); higher = less target engagement (more negative = stronger competition). The note with it: THP-1, incubation time: 4 h.
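Further: competitive chemoproteomic profiling in live THP-1 cells with an iodoacetamide desthiobiotin (IA-DTB) probe, comparing probe-labelled peptide intensities in compound-treated cells against DMSO-treated controls.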

In the case of “NOC4L_Q9BVI4_100_YHSCCNR (UniProt Q9BVI4)”, the “probe-labelled cysteine peptide fold change” value (10 µM) was 0.0565 and the “probe-labelled cysteine peptide fold change” value (50 µM) stood at 0.152.
On to “NT5C3A_Q9H0P0_120_LVTDECR (UniProt Q9H0P0)”, for which the “probe-labelled cysteine peptide fold change” value is, setting by setting: (10 µM) 0.0452; (50 µM) 0.0745.
For “NRDC_O43847_1027_ECEDTHLGEEVDR (UniProt O43847)” the same measures were 0.131 and 0.225.
On to “NLRP2_Q9NX02_929_SSLLCLDLGLNHIGVK (UniProt Q9NX02)”, for which the “probe-labelled cysteine peptide fold change” value (10 µM) is -0.046 and the “probe-labelled cysteine peptide fold change” value (50 µM) came to 0.0929.
For “NPRL2_Q8WTW4_9_IECIFFSEFHPTLGPK (UniProt Q8WTW4)” the same measures were -0.0194 and 0.145.
For the target “NOTCH1_P46531_922_NCETDIDDCRPNPCHNGGSCTDGINTAFCDCLPGFR (UniProt P46531)”, the “probe-labelled cysteine peptide fold change” value is -0.00672 (10 µM) and -0.0992 (50 µM).
For “NOL10_Q9BSC4_202_VECWDPR (UniProt Q9BSC4)”, the “probe-labelled cysteine peptide fold change” value is, setting by setting: (10 µM) -0.069; (50 µM) 0.121.
For “NOB1_Q9ULX3_288_VFCSHCGNK (UniProt Q9ULX3)”, in that order: 0.0852 and 0.0822.
